For this test, the target named is platelet-derived growth factor receptor beta (PDGFR-β) (UniProt P05622). Kind of test: co-IP; BMEC lysate (0.3% CHAPS, 2 mM EDTA, 40 mM HEPES pH 7.4), with or without PDGF-BB treatment; anti-PDGFR-β antibody overnight at 4 °C, Protein A + G Sepharose; immunoblot for FAK, TLN1 and PDGFR-β.

The chains behind the UniProt entries cited, without tags or fusion partners. Residues count along the entry.
UniProt P05622, residues 32-1098: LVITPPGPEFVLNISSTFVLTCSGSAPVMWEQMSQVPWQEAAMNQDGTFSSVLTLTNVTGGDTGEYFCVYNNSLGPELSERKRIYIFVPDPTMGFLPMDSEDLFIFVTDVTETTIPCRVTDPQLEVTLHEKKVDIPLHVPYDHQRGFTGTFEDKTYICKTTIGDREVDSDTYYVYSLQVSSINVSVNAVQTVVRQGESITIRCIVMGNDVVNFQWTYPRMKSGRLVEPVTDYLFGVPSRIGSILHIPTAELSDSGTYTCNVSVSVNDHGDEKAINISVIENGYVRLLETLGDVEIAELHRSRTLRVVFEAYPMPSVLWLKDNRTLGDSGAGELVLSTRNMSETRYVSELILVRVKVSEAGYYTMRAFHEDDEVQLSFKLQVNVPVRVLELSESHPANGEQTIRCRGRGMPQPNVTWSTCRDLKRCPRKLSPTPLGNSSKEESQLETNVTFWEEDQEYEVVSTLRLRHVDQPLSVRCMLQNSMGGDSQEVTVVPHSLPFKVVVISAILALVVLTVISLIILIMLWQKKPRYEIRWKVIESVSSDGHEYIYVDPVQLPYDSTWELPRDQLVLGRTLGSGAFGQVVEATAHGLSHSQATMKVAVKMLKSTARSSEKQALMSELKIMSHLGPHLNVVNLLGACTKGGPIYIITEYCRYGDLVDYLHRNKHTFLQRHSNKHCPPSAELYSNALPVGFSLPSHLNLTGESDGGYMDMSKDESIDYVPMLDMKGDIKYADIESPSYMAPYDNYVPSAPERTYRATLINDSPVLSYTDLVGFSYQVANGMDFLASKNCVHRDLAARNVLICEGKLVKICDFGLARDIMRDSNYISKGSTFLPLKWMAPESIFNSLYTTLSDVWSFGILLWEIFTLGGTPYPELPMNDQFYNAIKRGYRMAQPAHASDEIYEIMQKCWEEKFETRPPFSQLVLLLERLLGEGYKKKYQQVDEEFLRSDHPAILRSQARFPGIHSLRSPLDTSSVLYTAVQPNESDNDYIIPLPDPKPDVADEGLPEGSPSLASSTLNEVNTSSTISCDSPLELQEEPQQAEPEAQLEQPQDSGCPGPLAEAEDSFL
UniProt P34152: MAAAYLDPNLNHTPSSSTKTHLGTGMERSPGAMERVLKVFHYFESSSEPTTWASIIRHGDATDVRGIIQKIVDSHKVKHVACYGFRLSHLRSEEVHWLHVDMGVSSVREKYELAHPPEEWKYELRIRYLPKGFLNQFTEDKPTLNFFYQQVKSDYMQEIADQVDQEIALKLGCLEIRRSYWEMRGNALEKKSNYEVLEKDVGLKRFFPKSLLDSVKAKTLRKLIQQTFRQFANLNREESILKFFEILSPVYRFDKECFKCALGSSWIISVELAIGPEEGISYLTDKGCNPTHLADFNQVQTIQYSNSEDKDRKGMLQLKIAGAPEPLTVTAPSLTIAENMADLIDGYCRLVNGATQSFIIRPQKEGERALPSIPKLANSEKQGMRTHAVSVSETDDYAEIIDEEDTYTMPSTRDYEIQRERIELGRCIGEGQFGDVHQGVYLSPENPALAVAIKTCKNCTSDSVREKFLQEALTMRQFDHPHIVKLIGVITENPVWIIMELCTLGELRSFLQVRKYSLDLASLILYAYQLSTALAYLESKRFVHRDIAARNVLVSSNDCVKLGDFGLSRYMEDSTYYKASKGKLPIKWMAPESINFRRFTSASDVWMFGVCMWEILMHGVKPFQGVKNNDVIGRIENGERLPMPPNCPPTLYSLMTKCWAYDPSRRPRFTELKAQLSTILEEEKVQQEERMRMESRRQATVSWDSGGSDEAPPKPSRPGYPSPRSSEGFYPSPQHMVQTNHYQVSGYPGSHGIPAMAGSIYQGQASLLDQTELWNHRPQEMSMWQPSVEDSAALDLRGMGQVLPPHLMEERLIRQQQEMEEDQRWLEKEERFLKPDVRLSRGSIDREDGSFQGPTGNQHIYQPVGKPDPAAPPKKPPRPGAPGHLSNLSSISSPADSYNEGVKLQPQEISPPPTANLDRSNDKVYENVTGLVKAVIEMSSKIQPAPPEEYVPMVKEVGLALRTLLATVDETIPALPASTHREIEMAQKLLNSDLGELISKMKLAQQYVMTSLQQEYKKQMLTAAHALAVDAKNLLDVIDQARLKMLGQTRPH
UniProt P26039: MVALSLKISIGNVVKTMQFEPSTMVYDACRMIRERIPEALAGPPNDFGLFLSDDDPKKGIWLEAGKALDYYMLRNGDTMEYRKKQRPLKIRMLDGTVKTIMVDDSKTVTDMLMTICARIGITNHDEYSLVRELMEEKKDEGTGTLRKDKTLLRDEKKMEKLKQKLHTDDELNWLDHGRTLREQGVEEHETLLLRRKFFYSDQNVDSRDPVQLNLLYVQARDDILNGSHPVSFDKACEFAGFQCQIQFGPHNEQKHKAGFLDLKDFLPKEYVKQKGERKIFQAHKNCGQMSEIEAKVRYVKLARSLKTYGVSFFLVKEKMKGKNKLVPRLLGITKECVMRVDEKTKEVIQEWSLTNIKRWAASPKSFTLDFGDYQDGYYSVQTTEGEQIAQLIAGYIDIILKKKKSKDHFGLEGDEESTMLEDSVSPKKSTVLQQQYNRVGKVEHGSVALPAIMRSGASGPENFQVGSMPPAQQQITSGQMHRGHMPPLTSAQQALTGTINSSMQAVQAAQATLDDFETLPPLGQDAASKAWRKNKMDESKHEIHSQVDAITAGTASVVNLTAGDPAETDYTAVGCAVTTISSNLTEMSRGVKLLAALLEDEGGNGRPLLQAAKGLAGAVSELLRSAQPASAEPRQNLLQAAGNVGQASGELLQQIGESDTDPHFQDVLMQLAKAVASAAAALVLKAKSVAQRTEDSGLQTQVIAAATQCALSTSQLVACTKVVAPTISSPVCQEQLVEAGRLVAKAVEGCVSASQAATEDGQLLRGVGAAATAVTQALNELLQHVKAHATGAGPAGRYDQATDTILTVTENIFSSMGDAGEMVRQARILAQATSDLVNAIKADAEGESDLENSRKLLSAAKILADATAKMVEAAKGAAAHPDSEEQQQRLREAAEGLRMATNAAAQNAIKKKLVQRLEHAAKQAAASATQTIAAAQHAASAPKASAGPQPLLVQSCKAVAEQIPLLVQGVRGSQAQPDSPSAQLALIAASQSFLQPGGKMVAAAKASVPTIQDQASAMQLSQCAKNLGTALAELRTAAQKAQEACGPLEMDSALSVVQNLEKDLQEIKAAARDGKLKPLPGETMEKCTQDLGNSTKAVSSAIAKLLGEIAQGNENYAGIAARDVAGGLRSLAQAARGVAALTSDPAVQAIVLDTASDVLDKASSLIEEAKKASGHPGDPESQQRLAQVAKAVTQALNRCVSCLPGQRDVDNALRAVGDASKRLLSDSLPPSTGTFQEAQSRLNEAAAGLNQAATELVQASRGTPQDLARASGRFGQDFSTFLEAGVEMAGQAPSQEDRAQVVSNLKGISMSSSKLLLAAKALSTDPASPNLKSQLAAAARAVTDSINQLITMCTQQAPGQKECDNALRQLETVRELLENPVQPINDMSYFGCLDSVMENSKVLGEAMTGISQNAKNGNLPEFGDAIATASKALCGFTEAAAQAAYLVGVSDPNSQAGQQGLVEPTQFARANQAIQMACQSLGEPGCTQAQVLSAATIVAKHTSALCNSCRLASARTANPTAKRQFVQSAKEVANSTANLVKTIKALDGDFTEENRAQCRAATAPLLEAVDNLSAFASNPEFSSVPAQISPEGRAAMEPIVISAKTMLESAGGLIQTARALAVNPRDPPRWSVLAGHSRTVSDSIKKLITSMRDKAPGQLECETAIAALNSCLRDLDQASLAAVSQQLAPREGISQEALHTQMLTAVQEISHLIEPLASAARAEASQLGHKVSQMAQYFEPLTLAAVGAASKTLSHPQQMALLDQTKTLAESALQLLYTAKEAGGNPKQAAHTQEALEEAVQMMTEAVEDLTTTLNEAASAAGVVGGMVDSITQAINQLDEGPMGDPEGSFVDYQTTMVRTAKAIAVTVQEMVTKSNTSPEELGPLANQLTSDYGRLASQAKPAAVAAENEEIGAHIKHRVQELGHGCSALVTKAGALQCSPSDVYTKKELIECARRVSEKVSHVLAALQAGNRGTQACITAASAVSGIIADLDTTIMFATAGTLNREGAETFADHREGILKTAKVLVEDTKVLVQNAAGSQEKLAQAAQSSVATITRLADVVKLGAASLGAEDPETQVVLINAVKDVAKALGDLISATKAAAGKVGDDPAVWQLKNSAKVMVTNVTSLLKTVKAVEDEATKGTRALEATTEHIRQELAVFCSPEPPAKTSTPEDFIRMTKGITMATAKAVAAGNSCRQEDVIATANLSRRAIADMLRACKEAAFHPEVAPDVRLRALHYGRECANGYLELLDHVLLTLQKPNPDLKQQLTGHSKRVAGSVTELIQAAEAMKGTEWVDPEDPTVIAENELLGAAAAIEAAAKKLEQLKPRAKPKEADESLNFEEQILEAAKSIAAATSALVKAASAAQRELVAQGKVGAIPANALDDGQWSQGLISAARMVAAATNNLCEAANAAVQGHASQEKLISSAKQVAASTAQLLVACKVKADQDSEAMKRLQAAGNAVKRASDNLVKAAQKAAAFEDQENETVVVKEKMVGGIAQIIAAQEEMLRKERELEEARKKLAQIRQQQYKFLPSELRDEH

Results are given in words; binding and its absence hold for the method and conditions named. In cells and extracts the contact can be indirect. Some binding calls cover weakened binding; strength is not graded here.

In the case of “focal adhesion kinase (FAK) (from UniProt P34152 1-1052) (enzyme)”, the binding entry was “binds”. The result for talin1 (from UniProt P26039 1-2541) reads “binds”.

Values taken from paper PMC9420732.
